Assay in all cases: affinity purification with mass spectrometry
For one assay, the target named is T1, Flag-myc-ISY1 (UniProt Q9ULR0).
T1 sequence: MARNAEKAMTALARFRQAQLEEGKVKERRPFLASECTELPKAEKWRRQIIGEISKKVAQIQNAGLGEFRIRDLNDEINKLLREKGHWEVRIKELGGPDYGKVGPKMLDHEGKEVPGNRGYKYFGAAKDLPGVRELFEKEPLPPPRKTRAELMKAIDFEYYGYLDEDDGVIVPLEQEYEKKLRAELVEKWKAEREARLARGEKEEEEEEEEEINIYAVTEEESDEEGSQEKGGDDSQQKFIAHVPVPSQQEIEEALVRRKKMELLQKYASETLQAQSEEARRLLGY

By UniProt entry, the sequences of proteins in these tests, tags left out. Where a name states a change or a piece, a line headed by the entry shows the natural chain unless it says otherwise. Residues count along the entry.
UniProt Q8N371: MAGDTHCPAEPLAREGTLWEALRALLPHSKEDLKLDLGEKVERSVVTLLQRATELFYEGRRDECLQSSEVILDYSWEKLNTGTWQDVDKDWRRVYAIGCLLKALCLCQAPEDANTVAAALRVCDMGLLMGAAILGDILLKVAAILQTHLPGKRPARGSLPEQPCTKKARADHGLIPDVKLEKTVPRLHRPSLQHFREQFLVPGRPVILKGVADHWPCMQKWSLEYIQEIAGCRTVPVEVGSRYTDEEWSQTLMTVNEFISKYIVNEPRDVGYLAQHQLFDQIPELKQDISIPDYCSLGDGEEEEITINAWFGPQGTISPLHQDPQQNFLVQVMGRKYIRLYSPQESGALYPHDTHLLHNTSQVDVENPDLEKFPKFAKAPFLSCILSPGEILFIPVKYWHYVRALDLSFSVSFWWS
UniProt P02749, residues 20-345: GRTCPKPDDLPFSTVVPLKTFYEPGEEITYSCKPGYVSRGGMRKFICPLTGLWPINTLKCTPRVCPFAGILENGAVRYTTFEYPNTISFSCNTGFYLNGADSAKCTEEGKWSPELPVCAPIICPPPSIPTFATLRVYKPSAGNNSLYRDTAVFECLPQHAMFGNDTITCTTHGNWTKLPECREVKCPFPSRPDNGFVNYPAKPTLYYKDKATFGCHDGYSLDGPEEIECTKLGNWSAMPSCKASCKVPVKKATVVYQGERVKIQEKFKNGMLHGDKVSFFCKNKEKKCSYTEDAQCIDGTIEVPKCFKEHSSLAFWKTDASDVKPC
UniProt Q96LA8: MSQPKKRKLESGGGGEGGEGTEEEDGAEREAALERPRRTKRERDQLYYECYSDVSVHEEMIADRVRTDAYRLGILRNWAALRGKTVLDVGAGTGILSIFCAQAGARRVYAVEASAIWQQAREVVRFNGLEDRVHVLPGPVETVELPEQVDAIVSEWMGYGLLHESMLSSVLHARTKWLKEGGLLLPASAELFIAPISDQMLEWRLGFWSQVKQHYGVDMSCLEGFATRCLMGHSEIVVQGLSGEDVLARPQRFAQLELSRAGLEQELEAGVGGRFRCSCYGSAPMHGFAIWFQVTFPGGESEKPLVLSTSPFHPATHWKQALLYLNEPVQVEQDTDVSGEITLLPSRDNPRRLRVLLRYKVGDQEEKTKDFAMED

The next assay addresses T2, ISY1 R3A (UniProt Q9ULR0).
T2 sequence: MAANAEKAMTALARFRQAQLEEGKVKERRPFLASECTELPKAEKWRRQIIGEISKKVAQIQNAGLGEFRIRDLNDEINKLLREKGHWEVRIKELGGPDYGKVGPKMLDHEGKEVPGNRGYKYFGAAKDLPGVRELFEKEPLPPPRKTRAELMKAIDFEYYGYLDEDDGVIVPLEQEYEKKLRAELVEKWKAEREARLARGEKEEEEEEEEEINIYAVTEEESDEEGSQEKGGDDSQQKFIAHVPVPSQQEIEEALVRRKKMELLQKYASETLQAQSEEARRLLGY

A further assay deals with T3, ISY1 R3K (UniProt Q9ULR0).
T3 sequence: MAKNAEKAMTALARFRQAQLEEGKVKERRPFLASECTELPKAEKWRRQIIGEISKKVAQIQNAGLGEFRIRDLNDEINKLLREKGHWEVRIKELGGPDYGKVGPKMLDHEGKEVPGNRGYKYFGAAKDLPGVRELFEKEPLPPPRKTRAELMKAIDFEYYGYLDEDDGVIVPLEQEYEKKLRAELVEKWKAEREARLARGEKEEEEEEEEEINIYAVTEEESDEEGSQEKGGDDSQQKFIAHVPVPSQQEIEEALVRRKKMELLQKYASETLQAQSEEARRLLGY

Assay [1] deals with Flag-tagged H321A JMJD5 (human) (UniProt Q8N371).

No constants are given. Whether binding was seen depends on the method and setting. In cells and extracts the contact can be indirect. Here binding means that the protein was enriched with, or labelled near, the bait; the list need not be complete. For part of these data: No binding means not detected with the bait. For part of these data: Sequences can lack the tags named with a protein.

For the molecule “Flag-tagged H321A JMJD5 (from UniProt Q8N371 1-416) (enzyme)”, the binding entry with Flag-myc-ISY1 was “binds”.
Turning to “APOH (apolipoprotein H) (from UniProt P02749 20-345)”, the binding result with Flag-myc-ISY1, in the assay with ISY1 R3A and with ISY1 R3K was “no binding” each time.
For “Protein Arginine N-methyltransferase 6 (PRMT6) (from UniProt Q96LA8 1-375) (enzyme)”, the binding result in the assay with ISY1 R3A and with ISY1 R3K was “no binding” each time.
Regarding “Flag-tagged WT JMJD5 (from UniProt Q8N371 1-416) (enzyme)”, the binding result with ISY1 R3A and with ISY1 R3K was “no binding” in each case.

B1: ISY1 (protein, UniProt Q9ULR0 1-285)
chain: MARNAEKAMTALARFRQAQLEEGKVKERRPFLASECTELPKAEKWRRQIIGEISKKVAQIQNAGLGEFRIRDLNDEINKLLREKGHWEVRIKELGGPDYGKVGPKMLDHEGKEVPGNRGYKYFGAAKDLPGVRELFEKEPLPPPRKTRAELMKAIDFEYYGYLDEDDGVIVPLEQEYEKKLRAELVEKWKAEREARLARGEKEEEEEEEEEINIYAVTEEESDEEGSQEKGGDDSQQKFIAHVPVPSQQEIEEALVRRKKMELLQKYASETLQAQSEEARRLLGY
In the case of B1, in assay [1], the binding result is listed as “binds”.

The record behind these values is doi:10.1101/2025.09.27.678987.
